Laboratory results published in US20220213197A1 (priority 2019, published 2022).
Some results were stated once for a whole list of compounds, not compound by compound.

Test system: influenza H1N1/A California 04/2009 virus and Staphylococcus aureus (1986 strain)
Assay: Experimental secondary viral/bacterial pneumonia
Design: species or system mice
Conditions: mouse, in vivo

CCOC(=O)C1=C[C@@H](OC(CC)CC)[C@H](NC(C)=O)[C@@H](N)C1 [Tamiflu, Oseltamivir]
Reduction of lung viral titer compared to the negative control group: more than 15%
